## Library screen at single concentrations

By UniProt entry, the sequences of proteins in these tests, tags left out. Residues count along the entry.
UniProt P9WPC5, whole entry: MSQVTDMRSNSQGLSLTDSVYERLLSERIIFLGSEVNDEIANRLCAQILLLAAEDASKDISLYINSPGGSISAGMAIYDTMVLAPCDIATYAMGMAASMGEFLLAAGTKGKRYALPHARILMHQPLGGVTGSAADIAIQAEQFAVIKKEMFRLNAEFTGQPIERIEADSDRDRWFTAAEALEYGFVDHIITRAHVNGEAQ
UniProt P9WPC3, whole entry partner: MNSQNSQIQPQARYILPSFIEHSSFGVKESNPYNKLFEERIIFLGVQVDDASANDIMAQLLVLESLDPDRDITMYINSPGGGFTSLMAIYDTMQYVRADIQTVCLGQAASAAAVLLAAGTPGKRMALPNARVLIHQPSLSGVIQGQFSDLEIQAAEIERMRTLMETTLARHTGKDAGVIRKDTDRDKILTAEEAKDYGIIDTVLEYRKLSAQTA
UniProt P9WFT3, whole entry: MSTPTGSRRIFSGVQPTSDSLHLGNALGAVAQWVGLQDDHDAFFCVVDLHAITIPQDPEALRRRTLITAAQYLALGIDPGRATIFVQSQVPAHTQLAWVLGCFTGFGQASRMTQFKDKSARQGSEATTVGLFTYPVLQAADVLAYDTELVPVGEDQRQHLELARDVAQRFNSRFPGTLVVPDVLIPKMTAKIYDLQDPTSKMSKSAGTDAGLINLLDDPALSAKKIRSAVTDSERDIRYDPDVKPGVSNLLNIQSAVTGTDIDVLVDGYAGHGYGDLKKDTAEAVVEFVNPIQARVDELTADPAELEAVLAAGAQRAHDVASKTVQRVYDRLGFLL
UniProt I6X8D2, whole entry: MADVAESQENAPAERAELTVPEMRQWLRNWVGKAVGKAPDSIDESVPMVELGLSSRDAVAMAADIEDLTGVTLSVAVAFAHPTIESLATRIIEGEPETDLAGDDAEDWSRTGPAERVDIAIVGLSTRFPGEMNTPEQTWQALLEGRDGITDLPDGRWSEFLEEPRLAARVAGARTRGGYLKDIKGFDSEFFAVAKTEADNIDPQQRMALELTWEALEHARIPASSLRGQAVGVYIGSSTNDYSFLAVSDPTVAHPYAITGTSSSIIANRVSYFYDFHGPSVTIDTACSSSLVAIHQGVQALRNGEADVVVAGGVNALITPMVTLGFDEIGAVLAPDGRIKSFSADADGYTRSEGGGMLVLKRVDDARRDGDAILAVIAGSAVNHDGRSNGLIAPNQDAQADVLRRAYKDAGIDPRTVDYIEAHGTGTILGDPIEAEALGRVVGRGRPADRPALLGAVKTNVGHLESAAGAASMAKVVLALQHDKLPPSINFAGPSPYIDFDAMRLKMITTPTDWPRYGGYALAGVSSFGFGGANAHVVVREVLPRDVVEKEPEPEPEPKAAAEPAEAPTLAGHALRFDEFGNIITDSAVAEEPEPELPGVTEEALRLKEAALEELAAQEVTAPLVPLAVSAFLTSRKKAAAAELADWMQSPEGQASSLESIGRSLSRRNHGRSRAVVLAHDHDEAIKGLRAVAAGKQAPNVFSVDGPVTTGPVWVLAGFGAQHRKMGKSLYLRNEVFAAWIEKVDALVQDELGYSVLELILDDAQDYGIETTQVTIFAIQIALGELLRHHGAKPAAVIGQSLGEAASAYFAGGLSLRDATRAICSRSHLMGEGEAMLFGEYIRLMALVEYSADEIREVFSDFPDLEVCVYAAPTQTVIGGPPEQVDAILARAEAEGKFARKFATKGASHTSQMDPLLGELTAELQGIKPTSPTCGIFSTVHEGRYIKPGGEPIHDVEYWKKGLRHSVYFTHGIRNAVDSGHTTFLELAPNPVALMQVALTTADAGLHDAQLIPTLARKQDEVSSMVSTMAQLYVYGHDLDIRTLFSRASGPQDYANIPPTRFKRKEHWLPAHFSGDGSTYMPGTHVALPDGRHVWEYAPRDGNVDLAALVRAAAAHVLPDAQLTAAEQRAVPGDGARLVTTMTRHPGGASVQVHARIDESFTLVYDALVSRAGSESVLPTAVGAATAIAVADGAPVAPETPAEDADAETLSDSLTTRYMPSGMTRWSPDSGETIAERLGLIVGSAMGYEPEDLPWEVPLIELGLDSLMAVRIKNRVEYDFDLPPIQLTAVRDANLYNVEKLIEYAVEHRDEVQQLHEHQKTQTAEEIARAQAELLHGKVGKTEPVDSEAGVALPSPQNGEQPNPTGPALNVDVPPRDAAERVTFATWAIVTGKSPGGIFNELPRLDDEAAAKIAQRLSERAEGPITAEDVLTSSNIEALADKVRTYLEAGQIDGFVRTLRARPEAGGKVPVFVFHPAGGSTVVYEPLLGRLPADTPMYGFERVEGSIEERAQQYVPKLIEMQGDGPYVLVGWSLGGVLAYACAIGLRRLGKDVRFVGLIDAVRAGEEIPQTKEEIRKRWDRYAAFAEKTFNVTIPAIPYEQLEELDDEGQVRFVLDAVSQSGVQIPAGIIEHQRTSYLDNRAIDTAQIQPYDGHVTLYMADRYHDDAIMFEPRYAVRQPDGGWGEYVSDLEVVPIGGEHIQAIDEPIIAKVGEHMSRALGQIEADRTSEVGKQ
UniProt Q8IDJ8, 1-583: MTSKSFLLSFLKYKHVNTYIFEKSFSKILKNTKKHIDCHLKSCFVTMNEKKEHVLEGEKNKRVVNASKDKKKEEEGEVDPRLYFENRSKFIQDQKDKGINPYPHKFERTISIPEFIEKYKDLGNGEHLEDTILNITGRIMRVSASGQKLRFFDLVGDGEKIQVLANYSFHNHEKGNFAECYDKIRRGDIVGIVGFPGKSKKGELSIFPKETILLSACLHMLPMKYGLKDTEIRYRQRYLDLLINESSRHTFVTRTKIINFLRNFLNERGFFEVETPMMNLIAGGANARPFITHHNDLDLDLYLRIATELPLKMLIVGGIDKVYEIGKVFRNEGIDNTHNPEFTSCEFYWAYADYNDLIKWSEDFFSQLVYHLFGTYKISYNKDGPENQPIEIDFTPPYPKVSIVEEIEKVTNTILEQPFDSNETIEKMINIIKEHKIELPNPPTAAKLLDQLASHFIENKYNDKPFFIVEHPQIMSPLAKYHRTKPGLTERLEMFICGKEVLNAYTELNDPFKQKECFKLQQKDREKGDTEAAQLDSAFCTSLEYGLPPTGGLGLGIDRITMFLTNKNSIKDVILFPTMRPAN

Values are the deposited “Percent Effect”, in %. The record does not define 0% and 100%; most values in the screen are far below 50% and negative numbers occur (in some assays of this library far below -100). Compounds were drawn at random from those tested, without regard to their results.

ClpP1P2: 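ClpP1P2, Mycobacterium tuberculosis (UniProt P9WPC5 and UniProt P9WPC3). Protease assay of ClpP1P2, read by the AMC dye that it sets free. Compounds at 50 µM. Direction is inferred from only a few compounds that gave an IC50; most scored high, so higher reads as stronger inhibition. Most other retested compounds had strongly negative values. Size under these conditions: about 69,000 compounds, about 10 of them at 50% or above in at least one test.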
MtTrpRS: 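Enzyme assay of tryptophanyl-tRNA synthetase; the read-out is not stated. Target: Tryptophan-tRNA ligase, Mycobacterium tuberculosis (UniProt P9WFT3). Concentration: 10 µM. Higher most likely means stronger inhibition; the record gives no direction and few retests gave an IC50. About 65,000 compounds were tested under these conditions; 0.098% (about 64) showed 50% or more at least once.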
Pks13 thioesterase: 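Enzyme assay of the thioesterase domain of polyketide synthase 13; the read-out is not stated. Target: Polyketide synthase Pks13, Mycobacterium tuberculosis (UniProt I6X8D2). Concentration: 30 µM. The record gives no direction; the compounds picked for IC50 retests had high values, so higher reads as stronger inhibition. Of about 67,000 compounds tested this way, about 300 (0.46%) reached 50% or more in at least one test.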
PfKRS1: 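Enzyme assay of the cytosolic lysyl-tRNA synthetase in 384-well plates, read by luminescence. Target: Lysine-tRNA ligase, Plasmodium falciparum 3D7 (UniProt Q8IDJ8). Tested at 30 µM. Higher reads as stronger inhibition, judged from the few compounds that gave an IC50. Of about 69,000 compounds tested this way, about 49 (0.071%) reached 50% or more in at least one test.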

{"structure": "CNc1nc(C(=O)N2CCn3nc(C(=O)OC)cc3C2)cs1", "ClpP1P2": 16.8, "MtTrpRS": 2.12, "Pks13 thioesterase": -3.239, "PfKRS1": 0.6434}
{"structure": "Cc1nn(C)c(Cl)c1S(=O)(=O)N(CC(N)=O)CC(C)C", "ClpP1P2": -2.969, "MtTrpRS": -0.2075, "Pks13 thioesterase": -7.301, "PfKRS1": 0.09696}
{"structure": "COc1ccccc1Oc1cncc(C2CCCN(CC(N)=O)C2)n1", "stereo": "stereo not drawn", "ClpP1P2": 0.1239, "MtTrpRS": 16.31, "Pks13 thioesterase": -2.679, "PfKRS1": -4.072}
{"structure": "CCC1CN(Cc2ccccc2)CCN1Cc1nnc(C2CCC2)o1", "stereo": "stereo not drawn", "ClpP1P2": -8.307, "MtTrpRS": 3.92, "Pks13 thioesterase": -17.52, "PfKRS1": -0.7071}
{"structure": "COCC1CN(S(=O)(=O)Cc2ccccc2)Cc2c1cnn2C", "stereo": "stereo not drawn", "ClpP1P2": 0.3422, "MtTrpRS": -1.402, "Pks13 thioesterase": -4.007, "PfKRS1": 10.47}
{"structure": "COc1ccc(OCCN2CCN(Cc3nccn3C)CC2)cc1", "ClpP1P2": -22.16, "MtTrpRS": 17.74, "Pks13 thioesterase": -28.75, "PfKRS1": -1.072}
{"structure": "Cc1noc(C)c1CN1CCC2(CC1)NC(=O)CC2c1ccccc1", "stereo": "stereo not drawn", "ClpP1P2": -4.333, "Pks13 thioesterase": -15.63, "PfKRS1": 2.844}
{"structure": "O=C(c1ccncc1)N1CC[C@H]2[C@H]1CCN2S(=O)(=O)C1CC1", "ClpP1P2": 6.002, "MtTrpRS": -7.153, "Pks13 thioesterase": -25.1, "PfKRS1": 3.714}
{"structure": "Cc1cccc(CN2CCC(N(C)Cc3nnc(C4CC4)n3C)C2)c1", "stereo": "stereo not drawn", "ClpP1P2": -11.34, "MtTrpRS": -9.644, "Pks13 thioesterase": 0.7474, "PfKRS1": 1.804}
{"structure": "Oc1cc(-c2ccccn2)nc(C2CCN(Cc3ccncc3)CC2)n1", "ClpP1P2": 18.94, "MtTrpRS": 2.894, "Pks13 thioesterase": -2.751, "PfKRS1": -0.7439}
{"structure": "CC(C)(C)CN1CCCC12Cc1ccccc1CNC2=O", "stereo": "stereo not drawn", "ClpP1P2": 8.589, "MtTrpRS": -1.296, "Pks13 thioesterase": -9.281, "PfKRS1": 1.681}
{"structure": "COc1ccc(C)cc1CN(C)CC(N)=O", "ClpP1P2": 8.51, "MtTrpRS": -4.806, "Pks13 thioesterase": -40.58, "PfKRS1": 7.581}
{"structure": "O=C(CCCc1ccccn1)Nc1cccc(N2CCCNC2=O)c1", "ClpP1P2": -7.273, "MtTrpRS": -5.004, "Pks13 thioesterase": -13.37, "PfKRS1": 5.115}
{"structure": "CNc1ccc(C2CN(c3nc(C)cc(C)n3)CCO2)nc1", "stereo": "stereo not drawn", "ClpP1P2": -21.38, "MtTrpRS": -3.59, "Pks13 thioesterase": 5.527, "PfKRS1": 1.99}
{"structure": "CC(=O)c1ccc(S(=O)(=O)N2CCOC(Cn3ccnc3)C2)cc1", "stereo": "stereo not drawn", "ClpP1P2": -17.04, "MtTrpRS": -2.467, "Pks13 thioesterase": -10.38, "PfKRS1": 1.633}
{"structure": "CCn1cnnc1C1CCN(C(=O)c2cc3c(s2)CCOC3)CC1", "ClpP1P2": 2.585, "MtTrpRS": -7.733, "Pks13 thioesterase": -6.553, "PfKRS1": 0.9622}
{"structure": "Cn1c(NC(=O)CNC(=O)C2CC2)nc2cc(Cl)ccc21", "ClpP1P2": 3.533, "MtTrpRS": -2.805, "Pks13 thioesterase": -35.71, "PfKRS1": 0.03394}
{"structure": "Cn1nc2c(cc1=O)CN(c1ncnc3sccc13)CC2", "ClpP1P2": 7.021, "MtTrpRS": 8.167, "Pks13 thioesterase": -13.06, "PfKRS1": 28.65}
{"structure": "C=C(C)COc1ccccc1CNCCc1c[nH]cn1", "ClpP1P2": -10.26, "MtTrpRS": 0.9132, "Pks13 thioesterase": -22.47, "PfKRS1": 1.995}
{"structure": "NC(=O)C(NCc1cccs1)c1ccccc1", "stereo": "stereo not drawn", "ClpP1P2": 5.063, "MtTrpRS": 2.781, "Pks13 thioesterase": -4.557, "PfKRS1": 0.02323}
{"structure": "c1csc(CN2CCCn3nnc(COCC4CC4)c3C2)n1", "ClpP1P2": 0.7329, "MtTrpRS": -1.137, "Pks13 thioesterase": 5.633, "PfKRS1": 3.455}
{"structure": "CN1CCN(C2CCN(c3ccnc(-c4ccccc4)n3)CC2)C1=O", "ClpP1P2": 5.233, "MtTrpRS": -1.574, "Pks13 thioesterase": -7.999, "PfKRS1": 4.518}

For reference, 2 entries once more:

* Cc1nn(C)c(Cl)c1S(=O)(=O)N(CC(N)=O)CC(C)C | ClpP1P2: -2.969%; MtTrpRS: -0.2075%; Pks13 thioesterase: -7.301%; PfKRS1: 0.09696%
* Cn1nc2c(cc1=O)CN(c1ncnc3sccc13)CC2 | ClpP1P2: 7.021%; MtTrpRS: 8.167%; Pks13 thioesterase: -13.06%; PfKRS1: 28.65%

Source: ChEMBL document CHEMBL3988442, “University of Dundee, Small-Polar-MMV Screening Library” (2021).